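Luminescence from an EWS-FLI1 target-promoter (NR0B1) reporter, set against a CMV-promoter reporter, two days after silencing single genes in TC32 Ewing sarcoma cells. Each siRNA was applied at 20 nM. A z-score of the log NR0B1-over-CMV signal, less the median of siRNAs with the same seed; more negative means a stronger specific loss of the NR0B1 reporter.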

This is part of the screen; most of the strongest results are not listed here. Sequences are the guide (antisense) strand, without overhang.

siRNA	gene	seed-corrected z-score
ACACUCAUAAUCACUGCUG	ZNF671	-0.7395
UGACAUCACACUCAGGACC	IL20RB	-0.292
UCUCAAAUAAAUGCUCUGU	PXDC1	-0.3434
UAACAGAUCAUCUCACAUC	SCRG1	1.494
UCUACUGAAGGUGUUUUGU	C1orf122	-0.7069
UCGGAUGUCAUAGAACAGC	DCAF12	0.1159
UAUAGAUUGAGGUCGCCUG	BIVM	-0.2513
UUCAUGGUGAACUCAGUGG	RPL23AP37	-0.6835
UCCCAGGUAACAACAGCAG	SLA2	-0.811
AUAAAGACAUAGGCAGUGU	SPTSSB	-0.4848
AAUGUAACUAGAGCUGUGC	ATP6V1G1	0.05628
AACUAUAUAAAGUCCACUG	CENPL	-0.4009
AAAGUGUCUGGGUCUCGGC	OCM	0.2604
AAAGGAAAGAAGGGUUUGC	KRTAP5-9	0.1894
UCAGCGGUAUUUUUCGGUC	HBM	0.6196
UUCGUUAACAUGAAGUCCC	C5orf49	0.4544
UGAUCUAUCAGUCGACCUG	DDX42	-1.123
UUUGCUGGUAGGUAUAGCG	DNAJB12	-0.04857
UUCCGAAGAUCUCCUGCUC	FOXI3	-0.4026
AUAUUUACAGGGAAAGUGA	CD84	0.5303
UUGCCUAUCAGGAUCAUGG	PLAT	-1.641
UGUGAACAAACUGUCUUCC	PALM3	0.4999
AAGUGUGACAUUGCUGUCC	COL16A1	0.4046
UUUGAACUCAGAGCUGCGC	CDR2L	0.1347
UAAGCAUCUCGAUGAGGUC	ASB13	-0.61
UUAUUUCCUCCUUGAACUG	OLFM3	-0.7742
UCCAGUAAGGCAUUCAUGU	R3HDML	1.779
UACUCCACACGCAAAUUUC	TP53	-0.2952
UAUGUUUCAAGCUAUAUAA	CRH	-0.1964
UUCUGGGCUAGACAGAAGG	TMEM91	-1.059
AAAGAGUCCAUAGAUGCUG	OR51I2	-0.1035
AUCCGAAGCAUGAUAGUUG	SPOP	-0.9648
UCGUUGAUUUGUCCUUUUG	DDAH1	-1.66
UUGAAGACAAUCCAGGGUG	HCN4	-0.07863
UUGCUUGAGAAAGUGCUCG	ADPRHL2	-0.254
AUUGUCACUACGAAGGUUG	SCMH1	-0.8115
UUUGAUCCAACUGUUGUGC	MARK1	-0.16
UUCUGAAUCAUGAAGAAGG	SLC39A8	-0.1897
UAAGAUAAAGGCCUCAGAC	RHOQ	-0.1842
UUUCCAGUGUUGAUGUUCU	RPS15AP9	-0.6007
UUUACUUUCUGAUAGAAGG	SRXN1	1.494
UGAGUUCCUAAGACUACAG	OR2A7	-1.213
UAAUUAACCCUGUCUAGGG	LINC00479	0.1565
UACAAGUUUUCGUCCUCGG	NDUFB11	1.17
UCAGUGUCCAGGUCUGAAC	FAM134C	0.7502
AAUCUUCCAACAGGCAUUC	CEP72	-0.5848
UCAUGUUUCAUGAGCUUGC	MAPK12	-0.7331
UCCCUCUUCAGACCUCCUC	LOC645529	-0.5138
UUCUCAAUAUGACUUCUUG	ZNF430	-0.4203
AUCCAUACAUGUUCUUAGC	KIF23	-0.3179
UCUUUCACCAAUGCACUUG	IL5	-0.2751
UAGGUGAAGACGAAGGAAG	FOS	0.009438
UACGCUUUUGCGGAUGUCC	ARMC12	-0.1001
UUUGGGUCUUCUUAGUGAG	VEGFB	-1.004
UUAACCAUAGUAAUAGCUG	PTBP2	0.2525

For reference, 7 entries once more:

| siRNA | gene | seed-corrected z-score |
|---|---|---|
| `AAUCUUCCAACAGGCAUUC` | CEP72 | -0.5848 |
| `AAAGUGUCUGGGUCUCGGC` | OCM | 0.2604 |
| `UUAUUUCCUCCUUGAACUG` | OLFM3 | -0.7742 |
| `ACACUCAUAAUCACUGCUG` | ZNF671 | -0.7395 |
| `UUUACUUUCUGAUAGAAGG` | SRXN1 | 1.494 |
| `UAAUUAACCCUGUCUAGGG` | LINC00479 | 0.1565 |
| `UGAGUUCCUAAGACUACAG` | OR2A7 | -1.213 |

Source: PubChem BioAssay AID1159506 (NCATS, 2015).